From patent US10962528B2, “Blue fluorescent protein monomers and uses thereof” (WISYS TECHNOLOGY FOUNDATION, INC., priority 2015, dated 2021)
For at least one compound, name, drawing or mass did not settle the structure.

System: apoSFP
Experiment: Binding of apoSFP with other tetrapyrroles monitored by fluorescence
Design: species or system Sander vitreus
Details: excitation at 375 nm and 630 nm
Source text: FIG. 11E Binding of apoSFP with other tetrapyrroles monitored by fluorescence on excitation at (left) 375 nm and (right) 630 nm.
To examine the specificity of Sandercyanin to bilverdin IXa, we tested other BV-like tetrapyrrol compounds: hemin, bilirubin, and esterified BV derivatives.

C=CC1=C(C)/C(=C/c2[nH]c(Cc3[nH]c(/C=C4\NC(=O)C(C)=C4C=C)c(C)c3CCC(=O)O)c(CCC(=O)O)c2C)NC1=O [bilirubin]
binding and fluorescence with Sandercyanin: does not show binding and fluorescence
